Measured values published in US20250082687A1, “COMPOSITION FOR IMPROVING MEMORY OR COGNITIVE ABILITY, OR PREVENTING OR TREATING BRAIN NEUROLOGICAL DISEASE, COMPRISING PORCINE BRAIN ENZYME HYDROLYSATE” (UNIMED PHARMACEUTICALS INC., priority 2022, published 2025).
Part of at least one peptide drawing is inferred or uncertain, most often the ends. Where a SMILES comes first, the peptide text is derived from it.

Tests used:
β-amyloid = β-amyloid aggregation, Thioflavin T assay (brPEP-1); format: cell-based; settings: 0.002 ug/ml, after 18 hours
SH-SY5Y cells = experiment: Neuroprotective effect of peptides against β-amyloid-induced neuronal cell death (MTT); format: cell-based, human; settings: peptide pretreatment, then 40 μM Aβ25-35 for 24 hours
[1] = tested on: intracellular reactive oxygen species; experiment: Reactive oxygen species (ROS) inhibition of brPEP-1 and brPEP-2 (DCF-DA, H2O2); format: cell-based, human; settings: 2 ug/ml, H2O2 100 uM, SH-SY5Y
BDNF = BDNF production activity of brPEP-1 and brPEP-2; format: cell-based, human; settings: SH-SY5Y, 48 hours

Structure (SMILES) | beta-amyloid aggregation inhibition (β-amyloid) | neuroprotective activity (SH-SY5Y cells) | ROS inhibition [1] [%] | ability to produce the neurotrophic factor BDNF (BDNF)
CC[C@H](C)[C@H](NC(=O)[C@H](CO)NC(=O)[C@@H]1CCCN1)C(=O)N[C@@H](CO)C(=O)O [brPEP-1, PSIS] (H-PSIS-OH) | approximately 62% | 21-30% | 24 | superior ability to produce the neurotrophic factor BDNF
C[C@H](NC(=O)[C@@H]1CCCN1C(=O)CN)C(=O)NCC(=O)N1CCC[C@H]1C(=O)N[C@@H](CCC(N)=O)C(=O)NCC(=O)N1CCC[C@H]1C(=O)N[C@@H](CCCNC(=N)N)C(=O)O [brPEP-2, GPAGPQGPR] |  | 18˜31% | 17 | superior ability to produce the neurotrophic factor BDNF
